In article doi:10.64898/2025.12.10.693392:
No constants are given. Whether binding was seen depends on the method and setting. Binding seen in cells or lysates may run through a third protein. A yes stands for co-enrichment or nearness to the bait. Other partners may have been found. No binding means not detected with the bait.

The chains behind the UniProt entries cited, without tags or fusion partners.
UniProt P78527: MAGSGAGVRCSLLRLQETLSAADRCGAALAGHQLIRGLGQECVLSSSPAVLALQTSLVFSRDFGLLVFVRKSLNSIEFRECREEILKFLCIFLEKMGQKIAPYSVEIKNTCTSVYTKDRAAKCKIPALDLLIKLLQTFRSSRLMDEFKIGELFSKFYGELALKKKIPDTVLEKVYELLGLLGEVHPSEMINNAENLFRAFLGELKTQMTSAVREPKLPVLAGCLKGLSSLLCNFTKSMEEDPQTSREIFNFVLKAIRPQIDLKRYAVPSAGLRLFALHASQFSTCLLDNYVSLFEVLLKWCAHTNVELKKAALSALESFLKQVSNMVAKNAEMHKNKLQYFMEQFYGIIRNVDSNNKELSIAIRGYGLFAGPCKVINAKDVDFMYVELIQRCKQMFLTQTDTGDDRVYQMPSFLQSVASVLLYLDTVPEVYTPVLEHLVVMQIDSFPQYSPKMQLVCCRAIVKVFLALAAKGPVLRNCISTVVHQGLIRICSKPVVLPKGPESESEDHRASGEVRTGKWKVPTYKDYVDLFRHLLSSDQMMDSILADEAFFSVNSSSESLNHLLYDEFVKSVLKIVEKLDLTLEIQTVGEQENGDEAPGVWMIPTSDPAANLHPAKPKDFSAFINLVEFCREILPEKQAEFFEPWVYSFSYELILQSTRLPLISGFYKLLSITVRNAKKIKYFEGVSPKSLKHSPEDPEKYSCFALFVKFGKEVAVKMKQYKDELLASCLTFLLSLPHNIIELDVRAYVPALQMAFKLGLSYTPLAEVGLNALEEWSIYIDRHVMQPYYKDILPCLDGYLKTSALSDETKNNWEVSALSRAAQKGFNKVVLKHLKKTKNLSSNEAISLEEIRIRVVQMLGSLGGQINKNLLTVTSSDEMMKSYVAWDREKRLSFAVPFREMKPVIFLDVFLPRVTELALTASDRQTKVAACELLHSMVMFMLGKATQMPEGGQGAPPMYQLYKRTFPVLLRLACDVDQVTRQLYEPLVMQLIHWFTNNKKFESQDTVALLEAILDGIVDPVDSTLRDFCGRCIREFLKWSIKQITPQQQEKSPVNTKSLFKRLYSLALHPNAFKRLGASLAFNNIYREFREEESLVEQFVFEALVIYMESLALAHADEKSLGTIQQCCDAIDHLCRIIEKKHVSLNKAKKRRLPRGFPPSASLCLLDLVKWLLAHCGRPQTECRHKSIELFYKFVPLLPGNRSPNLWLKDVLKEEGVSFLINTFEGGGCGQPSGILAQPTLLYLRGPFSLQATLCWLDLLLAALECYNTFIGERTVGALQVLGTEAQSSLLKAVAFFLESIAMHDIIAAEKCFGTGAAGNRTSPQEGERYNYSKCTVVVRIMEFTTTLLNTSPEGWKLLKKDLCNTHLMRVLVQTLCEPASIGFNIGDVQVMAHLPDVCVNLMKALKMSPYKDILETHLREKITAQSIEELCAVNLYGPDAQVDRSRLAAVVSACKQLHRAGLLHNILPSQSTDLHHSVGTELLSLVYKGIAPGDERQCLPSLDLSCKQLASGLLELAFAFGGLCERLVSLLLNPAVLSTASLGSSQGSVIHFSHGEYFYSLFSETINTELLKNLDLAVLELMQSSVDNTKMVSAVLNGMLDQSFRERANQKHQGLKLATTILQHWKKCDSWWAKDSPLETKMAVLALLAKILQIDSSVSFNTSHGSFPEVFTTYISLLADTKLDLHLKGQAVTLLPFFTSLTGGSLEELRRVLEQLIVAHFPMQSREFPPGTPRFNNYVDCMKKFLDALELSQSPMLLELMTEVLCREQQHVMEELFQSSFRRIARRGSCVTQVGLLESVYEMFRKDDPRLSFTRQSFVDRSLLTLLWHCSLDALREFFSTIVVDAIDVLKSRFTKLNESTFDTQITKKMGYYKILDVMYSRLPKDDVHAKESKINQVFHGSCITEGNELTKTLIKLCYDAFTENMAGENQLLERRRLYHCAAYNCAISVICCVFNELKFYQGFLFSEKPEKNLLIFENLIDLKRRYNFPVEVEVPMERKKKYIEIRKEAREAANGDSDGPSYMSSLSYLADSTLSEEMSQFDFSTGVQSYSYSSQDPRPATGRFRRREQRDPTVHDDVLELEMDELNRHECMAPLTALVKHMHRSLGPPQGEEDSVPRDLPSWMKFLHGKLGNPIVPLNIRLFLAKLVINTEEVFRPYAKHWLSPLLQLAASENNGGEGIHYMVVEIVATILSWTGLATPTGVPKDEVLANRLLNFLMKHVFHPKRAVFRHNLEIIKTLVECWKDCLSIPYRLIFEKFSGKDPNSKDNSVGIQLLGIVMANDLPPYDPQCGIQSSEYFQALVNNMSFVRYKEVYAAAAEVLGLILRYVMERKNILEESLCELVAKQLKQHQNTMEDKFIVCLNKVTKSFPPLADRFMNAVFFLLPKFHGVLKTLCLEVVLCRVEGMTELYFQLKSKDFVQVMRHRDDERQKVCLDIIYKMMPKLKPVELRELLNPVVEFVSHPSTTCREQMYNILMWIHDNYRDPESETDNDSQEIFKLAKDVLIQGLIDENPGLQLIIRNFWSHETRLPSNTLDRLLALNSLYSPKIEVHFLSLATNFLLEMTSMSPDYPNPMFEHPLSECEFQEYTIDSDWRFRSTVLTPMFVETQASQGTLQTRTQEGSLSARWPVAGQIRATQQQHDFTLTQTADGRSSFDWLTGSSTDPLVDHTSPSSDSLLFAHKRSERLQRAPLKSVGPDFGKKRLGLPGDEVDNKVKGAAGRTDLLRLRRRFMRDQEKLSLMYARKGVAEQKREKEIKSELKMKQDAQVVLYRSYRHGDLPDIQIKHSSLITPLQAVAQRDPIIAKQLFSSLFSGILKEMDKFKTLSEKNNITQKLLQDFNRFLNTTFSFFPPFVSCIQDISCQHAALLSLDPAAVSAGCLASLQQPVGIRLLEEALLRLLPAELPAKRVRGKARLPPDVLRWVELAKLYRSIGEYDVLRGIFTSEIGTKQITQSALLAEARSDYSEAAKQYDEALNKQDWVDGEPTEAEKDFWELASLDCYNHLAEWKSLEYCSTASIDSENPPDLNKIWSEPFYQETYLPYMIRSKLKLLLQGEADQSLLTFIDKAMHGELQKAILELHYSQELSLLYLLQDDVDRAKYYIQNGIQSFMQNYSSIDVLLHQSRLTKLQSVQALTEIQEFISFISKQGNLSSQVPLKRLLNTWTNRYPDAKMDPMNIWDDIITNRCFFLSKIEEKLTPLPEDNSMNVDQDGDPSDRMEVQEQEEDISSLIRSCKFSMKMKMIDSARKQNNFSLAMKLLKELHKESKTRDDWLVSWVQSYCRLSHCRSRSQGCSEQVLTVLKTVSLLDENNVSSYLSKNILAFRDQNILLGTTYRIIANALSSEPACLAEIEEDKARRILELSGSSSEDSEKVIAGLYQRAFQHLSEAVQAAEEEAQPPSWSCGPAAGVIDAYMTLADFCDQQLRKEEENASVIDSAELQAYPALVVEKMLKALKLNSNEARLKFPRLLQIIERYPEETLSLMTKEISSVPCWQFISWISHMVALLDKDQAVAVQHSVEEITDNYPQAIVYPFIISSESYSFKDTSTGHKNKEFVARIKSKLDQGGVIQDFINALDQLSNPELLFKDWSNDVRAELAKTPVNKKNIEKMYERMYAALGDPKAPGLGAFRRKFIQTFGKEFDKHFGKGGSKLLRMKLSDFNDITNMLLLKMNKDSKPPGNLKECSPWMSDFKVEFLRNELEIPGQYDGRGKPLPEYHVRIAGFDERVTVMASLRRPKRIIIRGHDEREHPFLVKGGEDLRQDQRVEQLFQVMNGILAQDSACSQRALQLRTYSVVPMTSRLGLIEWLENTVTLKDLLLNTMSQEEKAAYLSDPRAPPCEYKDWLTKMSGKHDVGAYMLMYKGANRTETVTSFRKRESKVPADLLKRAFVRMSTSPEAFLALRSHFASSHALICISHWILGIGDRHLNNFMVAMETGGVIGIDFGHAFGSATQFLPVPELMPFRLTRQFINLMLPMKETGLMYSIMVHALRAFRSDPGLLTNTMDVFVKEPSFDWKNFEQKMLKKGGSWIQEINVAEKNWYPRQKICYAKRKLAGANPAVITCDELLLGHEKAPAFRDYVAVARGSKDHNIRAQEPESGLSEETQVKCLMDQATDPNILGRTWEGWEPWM
UniProt Q99459: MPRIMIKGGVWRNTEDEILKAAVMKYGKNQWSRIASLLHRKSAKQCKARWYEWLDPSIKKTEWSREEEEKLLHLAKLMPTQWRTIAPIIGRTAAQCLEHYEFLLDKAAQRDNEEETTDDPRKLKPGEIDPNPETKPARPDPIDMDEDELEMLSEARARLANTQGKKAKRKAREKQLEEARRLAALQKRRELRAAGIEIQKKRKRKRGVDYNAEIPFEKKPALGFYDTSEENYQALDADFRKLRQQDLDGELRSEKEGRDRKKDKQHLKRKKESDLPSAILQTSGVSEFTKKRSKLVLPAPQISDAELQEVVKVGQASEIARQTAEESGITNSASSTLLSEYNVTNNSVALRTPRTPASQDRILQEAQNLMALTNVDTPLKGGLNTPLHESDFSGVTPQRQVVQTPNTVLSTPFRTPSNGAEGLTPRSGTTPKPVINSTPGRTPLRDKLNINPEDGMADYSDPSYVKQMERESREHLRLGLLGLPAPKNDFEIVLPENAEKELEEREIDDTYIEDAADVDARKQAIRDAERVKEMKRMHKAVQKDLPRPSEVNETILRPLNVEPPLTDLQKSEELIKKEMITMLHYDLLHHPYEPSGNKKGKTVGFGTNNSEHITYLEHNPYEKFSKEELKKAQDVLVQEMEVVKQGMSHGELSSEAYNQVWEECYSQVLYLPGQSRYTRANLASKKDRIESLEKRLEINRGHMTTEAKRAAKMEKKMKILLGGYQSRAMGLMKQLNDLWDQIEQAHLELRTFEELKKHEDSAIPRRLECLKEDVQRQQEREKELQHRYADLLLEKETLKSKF
UniProt P09874: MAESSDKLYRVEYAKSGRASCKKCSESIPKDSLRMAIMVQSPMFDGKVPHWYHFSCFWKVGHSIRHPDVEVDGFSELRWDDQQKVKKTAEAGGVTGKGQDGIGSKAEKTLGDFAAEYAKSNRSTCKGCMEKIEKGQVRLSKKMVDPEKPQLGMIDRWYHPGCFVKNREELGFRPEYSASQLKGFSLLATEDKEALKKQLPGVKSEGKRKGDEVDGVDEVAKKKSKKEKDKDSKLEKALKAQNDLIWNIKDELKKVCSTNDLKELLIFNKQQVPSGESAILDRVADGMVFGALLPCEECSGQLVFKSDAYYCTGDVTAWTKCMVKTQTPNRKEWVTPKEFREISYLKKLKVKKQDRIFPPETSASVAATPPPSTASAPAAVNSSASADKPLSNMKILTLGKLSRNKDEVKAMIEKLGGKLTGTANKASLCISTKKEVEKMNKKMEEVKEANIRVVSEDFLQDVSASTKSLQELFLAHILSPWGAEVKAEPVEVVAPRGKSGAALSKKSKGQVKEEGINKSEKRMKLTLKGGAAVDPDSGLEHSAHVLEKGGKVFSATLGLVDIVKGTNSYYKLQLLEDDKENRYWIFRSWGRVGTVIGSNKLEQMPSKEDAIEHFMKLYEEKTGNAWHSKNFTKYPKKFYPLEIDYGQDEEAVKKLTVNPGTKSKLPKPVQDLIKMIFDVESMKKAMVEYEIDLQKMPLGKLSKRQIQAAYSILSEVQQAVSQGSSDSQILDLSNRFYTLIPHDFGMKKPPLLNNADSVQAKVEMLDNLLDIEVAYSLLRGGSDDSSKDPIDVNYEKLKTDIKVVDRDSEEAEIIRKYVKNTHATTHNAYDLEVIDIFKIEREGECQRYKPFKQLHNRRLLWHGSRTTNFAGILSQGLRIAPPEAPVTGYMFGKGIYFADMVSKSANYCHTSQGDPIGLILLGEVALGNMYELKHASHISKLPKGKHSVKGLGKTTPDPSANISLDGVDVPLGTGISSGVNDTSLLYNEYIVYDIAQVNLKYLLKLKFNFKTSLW
UniProt Q8TBF4: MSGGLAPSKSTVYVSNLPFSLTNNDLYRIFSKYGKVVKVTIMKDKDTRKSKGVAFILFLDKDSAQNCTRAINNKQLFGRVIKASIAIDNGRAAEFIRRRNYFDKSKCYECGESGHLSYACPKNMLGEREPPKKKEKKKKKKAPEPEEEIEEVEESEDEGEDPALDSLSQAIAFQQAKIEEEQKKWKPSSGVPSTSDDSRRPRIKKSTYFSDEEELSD

T1: PDCD7 (human (endogenous in C4-2)) (UniProt Q8N8D1)
T1 sequence: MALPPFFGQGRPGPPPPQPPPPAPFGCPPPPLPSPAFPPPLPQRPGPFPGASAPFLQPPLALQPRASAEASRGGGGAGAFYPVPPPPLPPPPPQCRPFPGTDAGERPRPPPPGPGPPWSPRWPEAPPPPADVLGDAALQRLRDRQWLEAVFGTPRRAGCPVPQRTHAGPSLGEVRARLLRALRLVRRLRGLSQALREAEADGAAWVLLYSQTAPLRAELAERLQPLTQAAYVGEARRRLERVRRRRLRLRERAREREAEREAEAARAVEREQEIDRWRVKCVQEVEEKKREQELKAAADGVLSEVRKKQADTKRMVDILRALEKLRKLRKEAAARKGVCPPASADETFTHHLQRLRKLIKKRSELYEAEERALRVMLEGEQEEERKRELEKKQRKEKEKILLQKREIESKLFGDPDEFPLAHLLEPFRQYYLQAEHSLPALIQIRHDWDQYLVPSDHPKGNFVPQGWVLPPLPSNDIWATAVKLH


Each molecule was assayed against T1, PDCD7 (human (endogenous in C4-2)) (assay: affinity purification with mass spectrometry).

| Molecule | binding |
| --- | --- |
| PRKDC (from UniProt P78527 1-4128) | binds |
| RUVBL1 (from UniProt Q9Y265 1-456) | binds |
| CDC5L (from UniProt Q99459 1-802) | binds |
| XRCC5 (from UniProt P13010 1-732) | binds |
| PARP1 (from UniProt P09874 1-1014) | binds |
| XRCC6 (from UniProt P12956 1-609) | binds |
| ZRSR2 (protein, UniProt Q15696 1-482) MAAPEKMTFPEKPSHKKYRAALKKEKRKKRRQELARLRDSGLSQKEEEEDTFIEEQQLEEEKLLERERQRLHEEWLLREQKAQEEFRIKKEKEEAAKKRQEEQERKLKEQWEEQQRKEREEEEQKRQEKKEKEEALQKMLDQAENELENGTTWQNPEPPVDFRVMEKDRANCPFYSKTGACRFGDRCSRKHNFPTSSPTLLIKSMFTTFGMEQCRRDDYDPDASLEYSEEETYQQFLDFYEDVLPEFKNVGKVIQFKVSCNLEPHLRGNVYVQYQSEEECQAALSLFNGRWYAGRQLQCEFCPVTRWKMAICGLFEIQQCPRGKHCNFLHVFRNPNNEFWEANRDIYLSPDRTGSSFGKNSERRERMGHHDDYYSRLRGRRNPSPDHSYKRNGESERKSSRHRGKKSHKRTSKSRERHNSRSRGRNRDRSRDRSRGRGSRSRSRSRSRRSRRSRSQSSSRSRSRGRRRSGNRDRTVQSPKSK | no binding |
| RNPC3 (protein, UniProt Q96LT9 1-517) MAAPEQPLAISRGCTSSSSLSPPRGDRTLLVRHLPAELTAEEKEDLLKYFGAQSVRVLSDKGRLKHTAFATFPNEKAAIKALTRLHQLKLLGHTLVVEFAKEQDRVHSPCPTSGSEKKKRSDDPVEDDKEKKELGYLTVENGIAPNHGLTFPLNSCLKYMYPPPSSTILANIVNALASVPKFYVQVLHLMNKMNLPTPFGPITARPPMYEDYMPLHAPLPPTSPQPPEEPPLPDEDEELSSEESEYESTDDEDRQRMNKLMELANLQPKRPKTIKQRHVRKKRKIKDMLNTPLCPSHSSLHPVLLPSDVFDQPQPVGNKRIEFHISTDMPAAFKKDLEKEQNCEEKNHDLPATEVDASNIGFGKIFPKPNLDITEEIKEDSDEMPSECISRRELEKGRISREEMETLSVFRSYEPGEPNCRIYVKNLAKHVQEKDLKYIFGRYVDFSSETQRIMFDIRLMKEGRMKGQAFIGLPNEKAAAKALKEANGYVLFGKPMVVQFARSARPKQDPKEGKRKC | binds |
| SRSF2 (protein, UniProt Q01130 1-221) MSYGRPPPDVEGMTSLKVDNLTYRTSPDTLRRVFEKYGRVGDVYIPRDRYTKESRGFAFVRFHDKRDAEDAMDAMDGAVLDGRELRVQMARYGRPPDSHHSRRGPPPRRYGGGGYGRRSRSPRRRRRSRSRSRSRSRSRSRSRYSRSKSRSRTRSRSRSTSKSRSARRSKSKSSSVSRSRSRSRSRSRSRSPPPVSKRESKSRSRSKSPPKSPEEEGAVSS | binds |

Results, then the molecule that gave them:

| binding | Molecule |
| --- | --- |
| no binding | ZCRB1 (from UniProt Q8TBF4 1-217) |
| binds | ZMAT5 (protein, UniProt Q9UDW3 1-170) MGKRYFCDYCDRSFQDNLHNRKKHLNGLQHLKAKKVWYDMFRDAAAILLDEQNKRPCRKFLLTGQCDFGSNCRFSHMSERDLQELSIQVEEERRAREWLLDAPELPEGHLEDWLEKRAKRLSSAPSSRAEPIRTTVFQYPVGWPPVQELPPSLRAPPPGGWPLQPRVQWG |
| binds | SNRNP35 (protein, UniProt Q16560 1-246) MNDWMPIAKEYDPLKAGSIDGTDEDPHDRAVWRAMLARYVPNKGVIGDPLLTLFVARLNLQTKEDKLKEVFSRYGDIRRLRLVRDLVTGFSKGYAFIEYKEERAVIKAYRDADGLVIDQHEIFVDYELERTLKGWIPRRLGGGLGGKKESGQLRFGGRDRPFRKPINLPVVKNDLYREGKRERRERSRSRERHWDSRTRDRDHDRGREKRWQEREPTRVWPDNDWERERDFRDDRIKGREKKERGK |
| no binding | ARMC7 (protein, UniProt Q9H6L4 1-198) MAQKPKVDPHVGRLGYLQALVTEFQETQSQDAKEQVLANLANFAYDPSNYEYLRQLQVLDLFLDSLSEENETLVEFAIGGLCNLCPDRANKEHILHAGGVPLIINCLSSPNEETVLSAITTLMHLSPPGRSFLPELTATPVVQCMLRFSLSASARLRNLAQIFLEDFCSPRQVAEARSRQAHSALGIPLPRSVAPRQR |
